In article doi:10.1101/2020.03.08.982389:
Results are given in words; binding and its absence hold for the method and conditions named. In cells and extracts the contact can be indirect. A yes stands for co-enrichment or nearness to the bait. Other partners may have been found.

By UniProt entry, the sequences of proteins in these tests, tags left out.
UniProt Q9VLM8: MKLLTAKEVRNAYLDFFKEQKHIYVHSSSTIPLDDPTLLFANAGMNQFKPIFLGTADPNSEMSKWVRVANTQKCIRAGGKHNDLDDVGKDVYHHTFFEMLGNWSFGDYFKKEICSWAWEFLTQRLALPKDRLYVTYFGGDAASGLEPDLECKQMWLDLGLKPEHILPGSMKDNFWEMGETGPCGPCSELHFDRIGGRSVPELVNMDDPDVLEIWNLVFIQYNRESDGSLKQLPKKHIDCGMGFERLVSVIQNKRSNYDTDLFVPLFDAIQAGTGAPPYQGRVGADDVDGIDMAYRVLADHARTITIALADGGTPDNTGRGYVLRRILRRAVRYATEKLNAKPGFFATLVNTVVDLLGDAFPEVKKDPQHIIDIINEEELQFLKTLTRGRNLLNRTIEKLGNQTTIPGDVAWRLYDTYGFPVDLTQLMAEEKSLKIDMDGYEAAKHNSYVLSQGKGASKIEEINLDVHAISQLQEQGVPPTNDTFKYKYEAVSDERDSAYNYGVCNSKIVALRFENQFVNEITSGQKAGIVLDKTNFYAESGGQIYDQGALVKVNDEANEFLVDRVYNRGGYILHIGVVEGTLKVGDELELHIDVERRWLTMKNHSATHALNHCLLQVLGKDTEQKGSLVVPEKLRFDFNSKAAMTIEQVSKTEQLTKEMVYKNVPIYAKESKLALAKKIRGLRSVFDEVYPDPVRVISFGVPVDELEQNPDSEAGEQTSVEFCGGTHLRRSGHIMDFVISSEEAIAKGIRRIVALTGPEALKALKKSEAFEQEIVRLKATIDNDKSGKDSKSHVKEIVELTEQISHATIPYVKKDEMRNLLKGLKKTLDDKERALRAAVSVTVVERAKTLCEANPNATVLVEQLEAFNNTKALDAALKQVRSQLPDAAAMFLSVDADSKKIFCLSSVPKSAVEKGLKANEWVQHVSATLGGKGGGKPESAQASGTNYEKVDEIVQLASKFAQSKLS

target: GFP::Spg11-C (GFP-tagged Drosophila Spg11 C-terminus, amino acid residues 1468-1815) (Drosophila) (UniProt Q9W1Y8); assay: affinity purification with mass spectrometry

| Substance | binding |
| --- | --- |
| Drosophila homolog of alanyl-tRNA synthetase (AARS) (from UniProt Q9VLM8 1-966) (enzyme) | binds |
| Drosophila homolog of methionyl-tRNA synthetase (MARS) (from UniProt A1ZBE9) (enzyme) | binds |
| serine-tRNA synthetase (from UniProt Q9VQL1) (enzyme) | binds |
